Results as given in US12180160B1, “1-(naphthalen-2-yloxy)-3-(piperidin-1-yl)propan-2-ol as an eco-friendly insecticidal agent against Spodoptera littoralis (boisd.)” (priority 2023, dated 2024).

Test system: Spodoptera littoralis larvae (2nd and 4th instars)
Experiment: Insecticidal bioassay screening (castor leaf dip)
Format: in vivo
Details: 72 h, slope of regression (LDP) line
Method: Five concentrations (200, 100, 50, 25, 12.5 ppm) were designed for this synthetic compound and the reference fenoxycarb compound as the dynamic ingredients based on ppm via diluting the commercial formulation.
In this experiment, castor leaves are immersed in each of the previously prepared concentrations of the components for 10 seconds and then left to dry for 60 minutes. Larvae of the second and fourth instars of each checked strain are prepared with treated leaves in gauze-covered glass containers for 72 hrs. An untreated control is made in which leaves are dipped in triton x-100 and distilled water only. Then the preserved leaves were removed & fresh, untreated leaves were provided for 72 hours. Three replicates (10 larvae each) were checked for each concentration. Daily inspection was carried out for all treatments and mortality percentages were recorded 3 days (72 hours) after treatment. The average mortality percentage was corrected employing Abbott's formula. The corrected mortality rate for each of the previously synthesized compounds is statistically calculated according to Finney (1970). Through this rate, the corresponding concentration test lines (LDP lines) are assessed. Fifty and ninety percent mortality are determined, and the regression values for the checked products were previously evaluated.

| SMILES | slope ± SE (2nd instar larvae) | slope ± SE (4th instar larvae) |
| --- | --- | --- |
| OC(COc1ccc2ccccc2c1)CN1CCCCC1 (stereo not shown) [Compound 1, 1-(naphthalen-2-yloxy)-3-(piperidin-1-yl)propan-2-ol] | 0.283 ± 0.083 | 0.232 ± 0.085 |
| CCOC(=O)NCCOc1ccc(Oc2ccccc2)cc1 [Fenoxycarb, reference compound] | 0.238 ± 0.082 | 0.251 ± 0.082 |
